In patent publication US20110160081A1, “FUNCTIONAL COMPLEMENTATION ASSAY FOR DEFINED GPCR OLIGOMERS” (priority 2008, published 2011):
For at least one compound, name, drawing or mass did not settle the structure.

Tested on: endogenous muscarinic receptors
Test: Aequorin assay, endogenous receptors in AEQ cells
Type: cell-based

CC(=O)OCC[N+](C)(C)C [ACH, acetylcholine] was tested, and the “agonist-induced luminescence signal via endogenous Gq” value was “strong”.
